According to PubChem BioAssay AID588497 (NMMLSC, 2011):
The campaign covered roughly 360,000 compounds. About 780 (0.22%) were called active. This list was built around the results that the source calls inconclusive (neither active nor inactive); the mix of calls is not that of the screen. No stated cut-off is given here; in the data, active means inhibition above about 35% (passing the limit was not always enough); inconclusive means no clear call, values can overlap the other calls.

What follows are compounds tested on Botulinum neurotoxin type F light chain protease (Clostridium botulinum) (assay: BoNT/F light chain protease inhibitors, primary screen, biochemical, flow cytometry, MLPCN library (AID 588497; further: plate controls were buffer without enzyme for full effect and enzyme alone for no effect)). Details: Multiplex microsphere protease cleavage assay, at 10 µM, hits give high values.
`O=C(NCCCCNC(=O)c1ccc(Br)s1)c1ccc(Br)s1` was tested, and the inhibition was inactive: -1.3%.
For `CC(C)(C)C(=O)O/N=C(\N)COc1cccc(Cl)c1`, the inhibition was inconclusive: 22.7%.
`CC1(C)C2CCC(CN=C(N)CSS(=O)(=O)O)C1C2` (stereo unspecified) was tested, and the inhibition was inactive: -11.3%.
`Cc1ccc(CN2CCC[C@]3(N[C@H](c4ccc(C)cc4)[C@@H]4C(=O)N(Cc5ccccc5)C(=O)[C@@H]43)C2=O)cc1` was tested, and the inhibition was inactive: -6.9%.
For `CC(C(=O)N1CCCCCC1)N(c1ccc(Cl)cc1)S(C)(=O)=O` (stereo unspecified), the inhibition was inactive: 21.6%.
In the case of `CCCCN1C(=O)/C(=C2\SC(N3CCOCC3)=NC2=O)c2ccccc21`, the inhibition is reported as inconclusive: 9.3%.
`C=C(C)COc1ccc2c(CC)cc(=O)oc2c1` was tested, and the inhibition was inactive: -1.6%.
For `CCOc1ccccc1C1NC(=O)CCC1[N+](=O)[O-]` (stereo unspecified), the inhibition was inconclusive: -13.6%.
In the case of `COc1ccc(-c2cc(NC=O)c3ncc(-c4cc(OC)c(OC)c(OC)c4)n3c2)c(OC)c1`, the inhibition is reported as inactive: -7.7%.
In the case of `Cc1[nH]ccc2c1[nH]c1cc(=O)ccc12`, the inhibition is reported as inconclusive: -7%.
With `CC(=O)Nc1ccc(Nc2ncnc3c2cnn3-c2ccccc2)cc1` the inhibition was inactive: -2%.
In the case of `O=C(NC1CCCCC1)c1ccc(-c2ccccc2)cc1`, the inhibition is reported as inactive: -13.9%.
In the case of `Cc1cc(C)c(N=Cc2c(O)[nH]c(=O)[nH]c2=O)c(C)c1`, the inhibition is reported as inconclusive: 5.8%.
In the case of `Cc1cc(C)c(C)c(OCCN2CCOCC2)c1`, the inhibition is reported as inconclusive: 40.5%.
In the case of `CC(=O)N(CCc1cccc(C)c1)Cc1cc2ccc(C)cc2[nH]c1=O`, the inhibition is reported as inconclusive: -1.3%.
For `Cc1ccc(NC(=O)c2noc(C(C)C)c2[N+](=O)[O-])cc1`, the inhibition was inactive: -3%.
`Cc1ccc(C(=O)Nc2ccc(C(=O)O)cc2NC(=O)c2ccc(C)cc2)cc1` was tested, and the inhibition was inconclusive: -36.4%.
With `CC(=O)N1CCN(c2nnc(-c3ccc(C)cc3)c3ccccc23)CC1` the inhibition was inconclusive: 16.2%.
With `O=C(NCCN1CCOCC1)c1cccc(NS(=O)(=O)c2ccc(Br)cc2)c1` the inhibition was inactive: -5.7%.
In the case of `Cc1cccc(NC(=O)c2ccccc2C(=O)Nc2cccc(C)c2)c1`, the inhibition is reported as inconclusive: 41.7%.
`Cc1ccccc1N1CCN(Cc2ccc3c(c2)OCO3)CC1` was tested, and the inhibition was inconclusive: -19.2%.
`Oc1ccc(Br)cc1-c1ccnn1-c1ccccc1` was tested, and the inhibition was inconclusive: -8.5%.
`CC/C(=N\Nc1ccccc1)c1c(O)n(-c2ccccc2)c(=O)[nH]c1=O` was tested, and the inhibition was inconclusive: -156%.
In the case of `CCOc1cccc(CNCCCSc2ncccn2)c1`, the inhibition is reported as inconclusive: -19.5%.
`COC(=O)/C=C1\S/C(=N/N=C/c2ccc(Cl)cc2)NC1=O` was tested, and the inhibition was inconclusive: -29.1%.
With `COCc1cc(C)nc(N)c1C#N` the inhibition was inactive: 10.8%.
